Literature values as cited in patent publication US11542545B2, “Microfluidic measurements of the response of an organism to a drug” (priority 2014, dated 2023).

Test system: E. coli isolates
Conditions: RNA target; cited from earlier work

## O=C(O)c1cn(C2CC2)c2cc(N3CCNCC3)c(F)cc2c1=O [ciprofloxacin]
  Response to Ciprofloxacin: EcHS_A3606 feoB ferrous iron transport protein B: down-regulated
